The source of these data is article PMC3281992.

The chains behind the UniProt entries cited, without tags or fusion partners.
UniProt O35730: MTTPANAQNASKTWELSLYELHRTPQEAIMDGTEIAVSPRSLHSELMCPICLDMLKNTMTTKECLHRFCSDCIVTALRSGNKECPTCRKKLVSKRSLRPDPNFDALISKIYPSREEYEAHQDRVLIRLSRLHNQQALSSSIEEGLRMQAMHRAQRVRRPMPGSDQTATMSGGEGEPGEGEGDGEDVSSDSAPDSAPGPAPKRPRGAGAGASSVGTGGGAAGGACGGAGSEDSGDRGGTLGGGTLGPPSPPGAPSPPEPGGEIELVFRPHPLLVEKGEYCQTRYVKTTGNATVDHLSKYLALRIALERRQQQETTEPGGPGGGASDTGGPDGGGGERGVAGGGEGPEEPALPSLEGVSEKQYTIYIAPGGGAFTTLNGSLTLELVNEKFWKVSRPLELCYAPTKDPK

The target in test [1] is T1, MEL-18-Flag (mouse) (UniProt P23798).
T1 sequence: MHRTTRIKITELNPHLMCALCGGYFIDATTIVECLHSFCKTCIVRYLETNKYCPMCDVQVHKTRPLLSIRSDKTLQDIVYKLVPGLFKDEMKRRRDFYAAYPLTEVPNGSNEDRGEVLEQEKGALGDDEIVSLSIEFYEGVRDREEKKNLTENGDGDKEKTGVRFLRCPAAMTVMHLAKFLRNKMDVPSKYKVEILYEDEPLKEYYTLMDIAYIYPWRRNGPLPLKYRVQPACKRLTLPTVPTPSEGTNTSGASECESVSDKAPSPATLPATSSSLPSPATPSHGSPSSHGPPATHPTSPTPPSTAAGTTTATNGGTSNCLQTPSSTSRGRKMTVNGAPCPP
The test is described as follows: affinity purification with mass spectrometry; Flag purification of MEL-18-Flag, RYBP-Flag or CBX7-Flag from PGK12.1 mESC nuclear extract; gel bands or lanes analysed by LC-MS/MS.

The next test deals with CBX7-Flag (mouse) (UniProt Q8VDS3). Described as above.
For the next test, the target named is T2, RYBP-Flag (mouse) (UniProt Q8CCI5).
T2 sequence: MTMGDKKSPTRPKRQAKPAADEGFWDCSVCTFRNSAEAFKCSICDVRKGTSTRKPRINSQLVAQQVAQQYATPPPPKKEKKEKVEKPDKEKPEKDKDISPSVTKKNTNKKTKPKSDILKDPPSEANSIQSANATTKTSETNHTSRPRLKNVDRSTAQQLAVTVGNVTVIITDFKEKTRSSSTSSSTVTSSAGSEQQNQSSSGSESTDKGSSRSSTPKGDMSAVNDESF
The test is described as above.

Test [2] deals with T1, MEL-18-Flag (mouse). The test is described as follows: affinity purification with mass spectrometry + co-IP; Flag purification of MEL-18-Flag from NSC nuclear extract, LC-MS/MS and western blot. A general note: In western blotting, separated proteins are transferred to a membrane and probed.
Test [3] concerns the target T3, MEL-18-Flag (mouse), P23798.
T3 chain: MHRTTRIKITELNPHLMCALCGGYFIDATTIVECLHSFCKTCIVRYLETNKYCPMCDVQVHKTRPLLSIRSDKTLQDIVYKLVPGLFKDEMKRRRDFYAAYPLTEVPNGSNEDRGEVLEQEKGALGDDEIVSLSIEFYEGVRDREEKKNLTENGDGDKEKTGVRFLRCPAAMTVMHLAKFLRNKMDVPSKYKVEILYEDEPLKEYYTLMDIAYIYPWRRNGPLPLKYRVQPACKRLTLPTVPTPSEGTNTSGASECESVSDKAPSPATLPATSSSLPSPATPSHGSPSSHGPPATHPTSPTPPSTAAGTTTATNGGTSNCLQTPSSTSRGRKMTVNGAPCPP
The description is as above. The conditions noted are these: remark: other sources report otherwise.

For test [4] the target is unchanged. Description: affinity purification with mass spectrometry; Flag purification of MEL-18-Flag, RYBP-Flag or CBX7-Flag from PGK12.1 mESC nuclear extract; gel bands or lanes analysed by LC-MS/MS. The conditions noted are these: remark: other sources report otherwise.
For test [5], the target named is T4, CBX7-Flag (mouse), Q8VDS3.
T4 chain: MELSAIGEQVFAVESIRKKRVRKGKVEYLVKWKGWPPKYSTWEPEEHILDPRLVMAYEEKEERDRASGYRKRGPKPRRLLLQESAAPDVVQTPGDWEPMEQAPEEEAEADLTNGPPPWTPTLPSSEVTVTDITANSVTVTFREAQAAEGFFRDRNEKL
The test is described as above. Particulars: remark: other sources report otherwise.

No constants are given. Whether binding was seen depends on the method and setting. In cells and extracts the contact can be indirect. Here binding means that the protein was enriched with, or labelled near, the bait; the list need not be complete. For some of these results: Sequences can lack the tags named with a protein.

With RING1A (from UniProt O35730 1-406), the binding result with MEL-18-Flag (mouse) [1], with CBX7-Flag (mouse), with RYBP-Flag (mouse) and with MEL-18-Flag (mouse) [2] was “binds” throughout.

B1: CBX7, Q8VDS3 1-158 (protein)
chain: MELSAIGEQVFAVESIRKKRVRKGKVEYLVKWKGWPPKYSTWEPEEHILDPRLVMAYEEKEERDRASGYRKRGPKPRRLLLQESAAPDVVQTPGDWEPMEQAPEEEAEADLTNGPPPWTPTLPSSEVTVTDITANSVTVTFREAQAAEGFFRDRNEKL
As for B1, the binding result in test [3] and in test [4] was “binds” each time.

B2: MEL-18, P23798 1-342 (protein)
chain: MHRTTRIKITELNPHLMCALCGGYFIDATTIVECLHSFCKTCIVRYLETNKYCPMCDVQVHKTRPLLSIRSDKTLQDIVYKLVPGLFKDEMKRRRDFYAAYPLTEVPNGSNEDRGEVLEQEKGALGDDEIVSLSIEFYEGVRDREEKKNLTENGDGDKEKTGVRFLRCPAAMTVMHLAKFLRNKMDVPSKYKVEILYEDEPLKEYYTLMDIAYIYPWRRNGPLPLKYRVQPACKRLTLPTVPTPSEGTNTSGASECESVSDKAPSPATLPATSSSLPSPATPSHGSPSSHGPPATHPTSPTPPSTAAGTTTATNGGTSNCLQTPSSTSRGRKMTVNGAPCPP
Turning to B2, the binding result in test [5] is “binds”.
